Assay results taken from publication PMC3012607, “From an electrophoretic mobility shift assay to isolated transcription factors: a fast genomic-proteomic approach”.
For at least one entry, the source does not settle the construct or the ends of the probe. For part of these data: No signal at the amounts used counts as a negative. For part of these data: At least one verdict rests on a figure or table, not on a statement of the authors. For part of these data: At least one result comes from cells or an extract, where the contact may be indirect. For part of these data: Where a protein sequence is shown, tags need not be part of it.

Assays:
[1] = target: T1, 2488prp from cell-free extract (UniProt G0RQ24); assay: pull-down; details: streptavidin affinity, MS, poly(dIdC) and CKT067/CKT068 as nonspecific competitors; pull-down binding mix: 200 mM KCl, 200 ng/uL poly(dIdC), 200 ng/uL CKT067/CKT068, 8 mM spermidine, on ice; protein in an extract; label: 5'-biotin on strand 1
T1 sequence (looked up, limits assumed): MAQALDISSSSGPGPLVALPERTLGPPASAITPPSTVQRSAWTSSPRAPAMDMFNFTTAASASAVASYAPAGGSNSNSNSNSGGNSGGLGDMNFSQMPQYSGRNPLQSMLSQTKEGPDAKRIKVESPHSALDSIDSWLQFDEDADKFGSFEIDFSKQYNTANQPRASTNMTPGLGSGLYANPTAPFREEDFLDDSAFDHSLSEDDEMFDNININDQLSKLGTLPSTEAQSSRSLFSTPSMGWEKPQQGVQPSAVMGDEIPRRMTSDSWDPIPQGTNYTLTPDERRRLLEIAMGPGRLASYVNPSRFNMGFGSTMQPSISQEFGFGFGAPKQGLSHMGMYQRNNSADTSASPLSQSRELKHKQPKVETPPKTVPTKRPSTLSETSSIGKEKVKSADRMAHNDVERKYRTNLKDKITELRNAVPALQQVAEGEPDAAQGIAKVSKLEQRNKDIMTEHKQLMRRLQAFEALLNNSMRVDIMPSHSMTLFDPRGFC

[2] = system: 3151prp from cell-free extract; assay: pull-down; details: streptavidin affinity, MS, poly(dIdC) and CKT067/CKT068 as nonspecific competitors; pull-down binding mix: 200 mM KCl, 200 ng/uL poly(dIdC), 200 ng/uL CKT067/CKT068, 8 mM spermidine, on ice; protein in an extract; label: 5'-biotin on strand 1
[3] = system: 7236prp from cell-free extract; assay: pull-down; details: streptavidin affinity, MS, poly(dIdC) and CKT067/CKT068 as nonspecific competitors; pull-down binding mix: 200 mM KCl, 200 ng/uL poly(dIdC), 200 ng/uL CKT067/CKT068, 8 mM spermidine, on ice; protein in an extract; label: 5'-biotin on strand 1
[4] = system: 3151prp DBD (Hypocrea jecorina (Trichoderma reesei)); assay: EMSA; details: EMSA: 100 ng DBD or 60 ng IVT protein with 15 ng FAM probe, 15 min on ice; recombinant protein; protein details: GST removed by thrombin; label: 5'-FAM on strand 1
[5] = system: 7236prp DBD (Hypocrea jecorina (Trichoderma reesei)); assay: EMSA; details: two complexes, rather non-specific; EMSA: 100 ng DBD or 60 ng IVT protein with 15 ng FAM probe, 15 min on ice; recombinant protein; protein details: GST removed by thrombin; label: 5'-FAM on strand 1
GST = assay: EMSA; details: EMSA: 100 ng DBD or 60 ng IVT protein with 15 ng FAM probe, 15 min on ice; recombinant protein; label: 5'-FAM on strand 1
[6] = system: Xyr1 (Hypocrea jecorina (Trichoderma reesei)); assay: EMSA; details: positive control; EMSA: 100 ng DBD or 60 ng IVT protein with 15 ng FAM probe, 15 min on ice; protein translated in vitro; label: 5'-FAM on strand 1

Sequence	binding result [1]	binding result [2]	binding result [3]	binding result [4]	binding result [5]	binding result (GST)	binding result [6]
TGATGAAAGGAGAACAACTTCTAGACTG (double strand) [Bxyn2p250]	binds	binds	binds				
TGATGAAAGGAGAACAACGGAGAGACTGGGTAAATTGGTCAATGGCCAGCCGCTC (double strand) [Lpxyn2 M]				no binding	binds		
TGATGAAAGGAGAACAACTTCTAGACTGGGTAAATTGGTCAATGGCCAGCCGCTC (double strand) [Lpxyn2]				no binding	binds	no binding	binds
